Where two headings read alike, the source gives them in different places. These are yes or no findings as the source states them, for the method shown. For some of these results: In cells and extracts the contact can be indirect. Some results given as binding are weak or reduced against the parent protein; the word gives no strength. For some of these results: Sequences can lack the tags named with a protein.

The chains behind the UniProt entries cited, without tags or fusion partners. Where a name states a change or a piece, a line headed by the entry shows the natural chain unless it says otherwise.
UniProt Q86Y07: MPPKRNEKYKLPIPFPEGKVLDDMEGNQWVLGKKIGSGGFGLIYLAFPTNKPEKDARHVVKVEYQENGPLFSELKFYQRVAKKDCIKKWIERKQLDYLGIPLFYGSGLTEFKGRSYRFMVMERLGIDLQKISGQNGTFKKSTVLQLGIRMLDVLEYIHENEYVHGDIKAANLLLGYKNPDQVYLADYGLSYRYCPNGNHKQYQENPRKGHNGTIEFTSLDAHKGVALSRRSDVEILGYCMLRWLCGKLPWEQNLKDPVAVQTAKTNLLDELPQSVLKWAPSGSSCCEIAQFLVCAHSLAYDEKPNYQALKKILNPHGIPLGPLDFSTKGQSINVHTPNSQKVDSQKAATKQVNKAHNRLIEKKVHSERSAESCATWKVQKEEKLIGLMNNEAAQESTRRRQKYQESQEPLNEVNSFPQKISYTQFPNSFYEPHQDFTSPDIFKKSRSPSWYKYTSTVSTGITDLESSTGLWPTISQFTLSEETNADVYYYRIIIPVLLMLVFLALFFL
UniProt Q13283: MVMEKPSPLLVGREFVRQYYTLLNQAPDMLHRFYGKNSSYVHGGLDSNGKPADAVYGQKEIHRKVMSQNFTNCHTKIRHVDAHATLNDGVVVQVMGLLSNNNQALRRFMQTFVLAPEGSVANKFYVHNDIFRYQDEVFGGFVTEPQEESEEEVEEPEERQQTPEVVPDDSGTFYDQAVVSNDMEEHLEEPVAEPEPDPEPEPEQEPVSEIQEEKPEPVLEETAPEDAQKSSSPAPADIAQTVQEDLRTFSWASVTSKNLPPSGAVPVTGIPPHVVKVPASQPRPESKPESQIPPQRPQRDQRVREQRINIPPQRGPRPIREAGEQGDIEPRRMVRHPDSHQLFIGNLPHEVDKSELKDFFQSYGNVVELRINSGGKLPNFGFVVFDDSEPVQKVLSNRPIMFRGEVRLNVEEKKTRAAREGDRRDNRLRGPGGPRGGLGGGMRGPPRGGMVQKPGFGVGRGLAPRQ

The target in experiment [1] is pNTAP-VRK2 (human) (UniProt Q86Y07). Description: pull-down; pNTAP-streptavidin pull down: U2OS cells transfected with pNTAP-Mock or pNTAP-VRK2, lysed in RIPA buffer; 1 mg lysate with streptavidin agarose resin 12 h at 4 °C; immunoblot.
The next experiment has as its target GST-G3BP1 (human) (UniProt Q13283). The experiment can be described thus: pull-down; GST pull down: GST-tagged recombinant protein mixed with His- or Intein-tagged recombinant protein in 20 mM Tris, 150 mM NaCl, 1 mM EDTA, 0.5% Triton-X; Glutathione Sepharose 4B overnight at 4 °C; immunoblot; both purified.
For experiment [2], the target named is pNTAP-VRK2 (human) (UniProt Q86Y07). The experiment can be described thus: pull-down; pNTAP-streptavidin pull down: U2OS cells transfected with pNTAP-Mock or pNTAP-VRK2, lysed in RIPA buffer; 1 mg lysate with streptavidin agarose resin 12 h at 4 °C; immunoblot. This is another data set of the same source.
The next experiment deals with Flag-VRK2 (human) (UniProt Q86Y07). The experiment can be described thus: co-IP; HEK293A cells transfected with FLAG-VRK2 and GFP-RNF144A (or Mock); 1 mg lysate with Anti-Flag antibody and protein A-agarose overnight at 4 °C; 50 mM Tris pH 7.5, 30 mM NaCl, 2 mM EDTA, 1% Triton X-100; immunoblot.

Regarding “G3BP1 (in U2OS cells) (from UniProt Q13283 1-466)”, the binding entry with pNTAP-VRK2 (human) [1] is listed as “binds”.

“His-VRK2 (from UniProt Q86Y07-1 1-508) (enzyme)”: the binding result with GST-G3BP1 (human) is reported as “binds”.

B1: RNF144A (in U2OS cells) (enzyme, UniProt P50876 1-292)
chain: MTTTRYRPTWDLALDPLVSCKLCLGEYPVEQMTTIAQCQCIFCTLCLKQYVELLIKEGLETAISCPDAACPKQGHLQENEIECMVAAEIMQRYKKLQFEREVLFDPCRTWCPASTCQAVCQLQDVGLQTPQPVQCKACRMEFCSTCKASWHPGQGCPETMPITFLPGETSAAFKMEEDDAPIKRCPKCKVYIERDEGCAQMMCKNCKHAFCWYCLESLDDDFLLIHYDKGPCRNKLGHSRASVIWHRTQVVGIFAGFGLLLLVASPFLLLATPFVLCCKCKCSKGDDDPLPT
Regarding B1, the binding result with pNTAP-VRK2 (human) [2] is recorded as “binds”.

B2: GFP-RNF144A (enzyme, UniProt P50876 1-292)
chain: B1 chain
For the molecule B2, the binding entry with Flag-VRK2 (human) is listed as “binds”.

Source of the values: paper PMC11982375.
